Laboratory results taken from paper PMC8586017.
These are yes or no findings as the source states them, for the method shown. Some binding calls cover weakened binding; strength is not graded here.

The chains behind the UniProt entries cited, without tags or fusion partners.
UniProt Q9CXS4: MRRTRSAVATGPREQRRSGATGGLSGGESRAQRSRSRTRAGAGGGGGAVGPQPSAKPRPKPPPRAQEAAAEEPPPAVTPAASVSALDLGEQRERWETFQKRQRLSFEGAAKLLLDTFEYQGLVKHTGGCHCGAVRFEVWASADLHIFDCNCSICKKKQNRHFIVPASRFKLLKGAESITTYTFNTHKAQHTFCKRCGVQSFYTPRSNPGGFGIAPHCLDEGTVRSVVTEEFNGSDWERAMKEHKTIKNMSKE

Molecular target: His6-CENP-V-eGFP (not stated (mouse Cenp-V cDNA cloned)) (UniProt Q9CXS4)
Test: TIRF microscopy, particle intensity distribution and photobleaching steps; motile CENP-V-eGFP particles on the lattice of taxol-stabilised microtubules; initial intensities (n = 249) compared with the intensity loss per GFP bleaching step (n = 50); both purified

- binding: binds
Substance: His6-CENP-V-eGFP (from UniProt Q9CXS4 1-252)
